Test results taken from paper PMC4872126.

Sequences of proteins named here, by UniProt entry; tags and fusion partners are left off. A change or cut given only in a name is not applied to a line headed by its entry. Residues count along the entry.
UniProt P54132, 642-1290: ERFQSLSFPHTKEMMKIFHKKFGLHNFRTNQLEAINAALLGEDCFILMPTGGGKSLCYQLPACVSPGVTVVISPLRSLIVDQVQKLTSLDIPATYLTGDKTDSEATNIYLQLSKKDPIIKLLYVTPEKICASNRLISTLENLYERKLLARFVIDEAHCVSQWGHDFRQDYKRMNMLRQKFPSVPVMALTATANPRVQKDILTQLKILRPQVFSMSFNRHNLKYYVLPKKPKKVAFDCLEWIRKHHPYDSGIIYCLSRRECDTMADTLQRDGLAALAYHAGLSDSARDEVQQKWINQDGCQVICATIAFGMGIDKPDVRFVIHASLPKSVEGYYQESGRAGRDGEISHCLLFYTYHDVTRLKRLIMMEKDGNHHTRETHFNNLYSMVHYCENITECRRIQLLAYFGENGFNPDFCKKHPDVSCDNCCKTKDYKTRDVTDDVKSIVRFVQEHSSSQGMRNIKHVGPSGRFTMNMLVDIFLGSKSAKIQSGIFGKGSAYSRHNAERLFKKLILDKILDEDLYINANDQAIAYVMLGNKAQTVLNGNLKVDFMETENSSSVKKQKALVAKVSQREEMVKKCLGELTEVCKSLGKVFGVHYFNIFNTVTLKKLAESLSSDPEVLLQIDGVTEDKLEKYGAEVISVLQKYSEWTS
UniProt P15043: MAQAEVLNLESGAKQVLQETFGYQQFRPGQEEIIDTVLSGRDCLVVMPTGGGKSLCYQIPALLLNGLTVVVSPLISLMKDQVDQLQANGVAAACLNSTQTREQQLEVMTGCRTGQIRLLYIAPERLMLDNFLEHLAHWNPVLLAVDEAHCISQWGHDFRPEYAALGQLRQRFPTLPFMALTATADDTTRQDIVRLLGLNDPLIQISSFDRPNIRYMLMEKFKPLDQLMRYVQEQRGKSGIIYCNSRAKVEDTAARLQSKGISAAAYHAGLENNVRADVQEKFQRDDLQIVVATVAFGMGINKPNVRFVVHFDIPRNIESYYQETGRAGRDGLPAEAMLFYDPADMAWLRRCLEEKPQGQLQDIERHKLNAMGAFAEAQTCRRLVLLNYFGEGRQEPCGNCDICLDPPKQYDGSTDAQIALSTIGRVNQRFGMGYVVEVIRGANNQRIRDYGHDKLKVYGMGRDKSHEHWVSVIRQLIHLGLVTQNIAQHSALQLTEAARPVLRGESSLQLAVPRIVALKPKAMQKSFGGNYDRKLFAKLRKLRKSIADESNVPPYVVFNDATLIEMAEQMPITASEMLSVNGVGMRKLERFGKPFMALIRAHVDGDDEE

What was measured:
Assay in all cases: fluorescence anisotropy
BLM full-length (human) = BLM full-length (human) (UniProt P54132); settings: 50 mM Tris-HCl pH 8.0, 50 mM NaCl, 1 mM DTT, 25 C, 200 nM protein, 5 nM 3'-fluorescein DNA, recombinant protein, single-stranded DNA; for binding result: residues 1-1417, label: 3'-fluorescein
BLM642-1290 (human) = BLM642-1290 (human) (UniProt P54132); settings: 50 mM Tris-HCl pH 8.0, 50 mM NaCl, 1 mM DTT, 25 C, 200 nM protein, 5 nM 3'-fluorescein DNA, recombinant protein, single-stranded DNA; for binding result: residues 642-1290, label: 3'-fluorescein
[1] = molecular target: RecQ E. coli (Escherichia coli) (UniProt P15043); settings: 50 mM Tris-HCl pH 8.0, 50 mM NaCl, 1 mM DTT, 25 C, 200 nM protein, 5 nM 3'-fluorescein DNA, recombinant protein, label: 3'-fluorescein, single-stranded DNA
[2] = Cd2+ + Zn2+ equimolar (synergistic inhibition)

GCCCTGCTGCCGACCAACGAAGGT [F-24 ss]: binds more weakly (BLM full-length (human); [2]); binds more weakly (BLM full-length (human); Zn2+ alone); binds more weakly (BLM642-1290 (human); [2]). For the same sequence, the binding result (BLM642-1290 (human); Zn2+ alone, >50 uM (no inhibition <15 uM)) was “binds more weakly”, the binding signal (% of activity without metal) ([1]; 100 uM Zn2+ alone) was 85 and the binding result ([1]; Cd2+ + Zn2+ equimolar (Cd2+ effect not reversed)) was “binds more weakly”.
With GCCTCGCTGCCGTCGCCA [F-18] the IC50 (BLM full-length (human); IC50 of CdCl2 inhibiting binding (not protein affinity), 5 nM DNA, residues 1-1417, label: 3'-fluorescein) was 6.67 µM, the binding result (BLM642-1290 (human); 50 uM Cd2+ + 0.5 mM NEM, 2 mM DTT) was “binds” and the binding result (BLM642-1290 (human); 50 uM Cd2+, 2 mM DTT) was “binds more weakly”. GCCTCGCTGCCGTCGCCA [F-18]: binds more weakly (BLM642-1290 (human); 100 uM Cd2+ and DNA pre-incubated with 5 mM His (partially restored), 10 nM DNA); binds more weakly (BLM642-1290 (human); 100 uM Cd2+ and DNA pre-incubated with 5 mM Val (partially restored), 10 nM DNA); binds more weakly (BLM642-1290 (human); Cd2+, 0.2 mM DTT). For the same sequence, the IC50 (BLM642-1290 (human); IC50 of CdCl2 inhibiting binding (not protein affinity), 5 nM DNA, residues 642-1290, label: 3'-fluorescein) was 9.22 µM, the binding result (BLM642-1290 (human); protein pre-incubated with 100 uM Cd2+, then 5 mM Cys, His or Val (not restored)) was “binds more weakly” and the IC50 ([1]; IC50 of CdCl2 inhibiting binding (not protein affinity), 5 nM DNA) was 41.7 µM.

The exact form of at least one protein or probe is not confirmed. Weaker means in comparison with the reference protein, sequence or condition of that experiment. For part of these data: Whether high values mean tight binding is not given here for every scale.
